For the experiment, the target named is T1, GST-CEP-1/p53 fusion protein (C. elegans) (UniProt Q20646).
T1 sequence: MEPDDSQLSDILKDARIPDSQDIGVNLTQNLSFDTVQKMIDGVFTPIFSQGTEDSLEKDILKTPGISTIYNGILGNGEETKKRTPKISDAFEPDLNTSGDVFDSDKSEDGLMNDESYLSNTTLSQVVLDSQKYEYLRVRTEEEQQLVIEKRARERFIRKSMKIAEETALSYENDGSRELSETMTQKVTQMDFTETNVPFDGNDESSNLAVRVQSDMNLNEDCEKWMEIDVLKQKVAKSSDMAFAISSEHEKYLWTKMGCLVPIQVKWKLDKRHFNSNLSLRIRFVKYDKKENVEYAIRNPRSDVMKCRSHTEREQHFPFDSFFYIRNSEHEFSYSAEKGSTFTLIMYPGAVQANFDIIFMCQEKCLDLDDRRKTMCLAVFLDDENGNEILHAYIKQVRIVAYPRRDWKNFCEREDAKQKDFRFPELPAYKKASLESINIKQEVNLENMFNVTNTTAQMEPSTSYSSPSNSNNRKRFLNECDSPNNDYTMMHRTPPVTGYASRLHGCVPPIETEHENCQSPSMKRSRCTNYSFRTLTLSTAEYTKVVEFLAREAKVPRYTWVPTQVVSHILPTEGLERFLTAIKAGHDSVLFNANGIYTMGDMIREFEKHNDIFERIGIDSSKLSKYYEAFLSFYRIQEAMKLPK
The experiment can be described thus: pull-down; purified GST or GST-CEP-1 immobilised on glutathione-Sepharose beads, incubated with [35S]methionine-labeled in vitro translated NHR-14 at 4 °C for more than 2 h; SDS-PAGE and autoradiography; only the target purified.

Our source for the binding values is article PMC9438139.

No constants are given. Whether binding was seen depends on the method and setting. In cells and extracts the contact can be indirect. Some binding calls cover weakened binding; strength is not graded here. Tags and fused reporters may be left off the sequences shown.

B1: [35S]methionine-labeled NHR-14 (protein, UniProt O02151 1-435)
chain: MDFLISTSLSESTSTSADFCVVCGDKAIGKHYGAVACNGCKGFFRRSVWQNLQYTCRFNKQCNIDKDHRNACRYCRFQKCLADGMKPEAIQNERDRIGSTKRRKRSGANSENNSDSEGTPSPKIEVMGNSVSRKLIEMLLDIEHRLASNQSMNALLRDESEMKNSRQRAVNYLIGWTNMLHPLPEVPLADKVLLLKKFSSAFTLLGTLQRSMALPHFVLPNDQVLSISASHPPELFEALTRIIDELLTPLRRLRTDHAEFSCLKALLLLNPDVVGISNNTRERIREARDALLKTLFAYMSNTQNSIDASLRVSSLLMIIPSLISVSSSIMEFPALSDLFGLGDVIKRDTISPKIETPPLEMKPMMPKIAQPPVTSAPTVPTNIMMNKDLISQIMNNPQLFPLLPMPQTASPPMSFMGQSEFGCHLQSMPVKVILS
modifications: [35S]methionine-labeled
As to B1, the binding entry was “binds”.
